These results are taken from PubChem BioAssay AID248 (DTP/NCI, 2004).

For this test, the system named is L1210 leukemia ip in BDF1 mice, survival T/C. In words: NCI In Vivo Anticancer Drug Screen. Data for tumor model L1210 Leukemia (intraperitoneal) in B6D2F1 (BDF1) mice. The settings on record: T/C endpoint: mean survival time, higher T/C = longer survival.
Where [1] appears, read: dose: 200.0 mg/kg/injection, schedule: Q01DX009 (ip), vehicle: Klucel (hydroxypropylcellulose) (HPC).
[2] abbreviates: dose: 400.0 mg/kg/injection, schedule: Q01DX009 (ip), vehicle: Klucel (hydroxypropylcellulose) (HPC).
[3] abbreviates: dose: 400.0 mg/kg/injection, schedule: Q04DX002 (ip), vehicle: saline.
[4] abbreviates: dose: 200.0 mg/kg/injection, schedule: Q01DX009 (ip), vehicle: saline with Tween-80.
[5] abbreviates: dose: 400.0 mg/kg/injection, schedule: Q04DX003 (ip), vehicle: saline with Tween-80.

The list shows only some results of the screen, not a fair sample: it gathers tests that were run many times, whatever their T/C, doses with no T/C, and many T/C values between a quarter and a half above the control. Other doses and runs of a compound stand elsewhere. T/C is the treated group as % of the vehicle group. Some entries give survivors of the animals treated and no T/C: the source holds a T/C of zero for them, seemingly a mark for toxic or unscored doses. Some survivor counts are full or nearly so, which does not show that the dose was tolerated: the source hardly ever lists a survival T/C far under the control, and the zero likely stands for such cases as well. Survivors were counted at the toxicity check, usually on the fifth day, unless a day is given; later deaths do not show. Schedules are NCI's codes, taken here to give the interval after Q, in days (D) or hours (H), and the number of doses after X. Some schedule codes hold Z or #, which are not explained here. Where survival is the endpoint, this PubChem deposit counts one and a half times the control or more as active, and values a quarter to a half above the control carry no call in these data; other NCI protocols may use other cut-offs.

Take `CCCCC1=Cc2cc3c(cc2C1N(C)C)OCO3` (centres undefined): the survivor count (dose: 50.0 mg/kg/injection, schedule: Q04DX002 (ip), vehicle: Klucel (hydroxypropylcellulose) (HPC)) is listed as 3 of 3.
Consider `Nc1c(C(F)(F)F)[nH]c(Cl)nc1=S`, for which the survivor count runs as follows: (dose: 44.0 mg/kg/injection, schedule: Q01DX Z (ip), vehicle: methylcellulose (MC)) 6 of 6; (dose: 100.0 mg/kg/injection, schedule: Q01DX Z (ip), vehicle: methylcellulose (MC)) 5 of 6.
Consider `CCCCN1C(=O)C(c2ccccc2)C2(CCN(C)CC2)C1=O` (centres undefined), for which the survivor count runs as follows: (dose: 200.0 mg/kg/injection, schedule: Q01DX001 (ip), vehicle: Klucel (hydroxypropylcellulose) (HPC)) 3 of 6; (dose: 400.0 mg/kg/injection, schedule: Q01DX001 (ip), vehicle: Klucel (hydroxypropylcellulose) (HPC)) 0 of 6.
Take `NC(CSS(=O)(=O)O)=NCc1cccs1`: under “dose: 50.0 mg/kg/injection, schedule: Q01DX009 (ip), vehicle: saline with Tween-80”, the survivor count is recorded as 1 of 3.
As to `COc1c2c(c(OC)c3ccccc13)C(=O)C1=C(CC=CC1)C2=O`, for the setting “dose: 400.0 mg/kg/injection, schedule: Q01DX005 (ip), vehicle: water”, the survivor count is recorded as 4 of 4.
`CCN(CC)Cc1cc(O)c(CN(CC)CC)cc1O`: the survivor count is, setting by setting: (dose: 100.0 mg/kg/injection, schedule: Q01DX001 (ip), vehicle: saline with Tween-80) 1 of 3; (dose: 200.0 mg/kg/injection, schedule: Q01DX001 (ip), vehicle: saline with Tween-80) 1 of 3; (dose: 400.0 mg/kg/injection, schedule: Q01DX001 (ip), vehicle: saline with Tween-80) 0 of 3.
In the case of `O=C1c2cccc3cccc(c23)C(=O)N1CCN1C(=O)c2cccc3cccc(c23)C1=O`, the survivor count (dose: 100.0 mg/kg/injection, schedule: Q01DX009 (ip), vehicle: Klucel (hydroxypropylcellulose) (HPC)) was 6 of 6; the survivor count under setting [1] was 4 of 6; the survivor count under setting [2] is 0 of 6.
In the case of `CCCCOCc1c(CO)cnc(C)c1O`, the survivor count (dose: 200.0 mg/kg/injection, schedule: Q04DX002 (ip), vehicle: saline) is 1 of 3 and the survivor count under setting [3] is on record as 0 of 3.
For `CN(C)CCCN=NNc1nc[nH]c1C(N)=O`, the survivor count (dose: 400.0 mg/kg/injection, schedule: Q04DX003 (ip), vehicle: Klucel (hydroxypropylcellulose) (HPC)) is given as 3 of 6.
Take `CCN(CC)CC(Cl)CN(CC)CC`: the survivor count reads like this: under setting [4], 1 of 6; under setting [5], 1 of 6.
Turning to `CNC(=O)Nc1cccc(C(F)(F)F)c1`, under setting [2], the survivor count is 6 of 6.
In the case of `O=C1C(=O)C(c2ccccc2)(c2ccccc2)c2cc(-c3ccccc3)c(-c3ccccc3)cc21`, the survivor count is, setting by setting: (dose: 100.0 mg/kg/injection, schedule: Q04DX003 (ip), vehicle: saline with Tween-80) 3 of 3; under setting [5], 3 of 3.
`N=C(N(O)C(=O)Nc1ccccc1)C(Cl)(Cl)Cl`: the survivor count by setting is: under setting [1], 3 of 6; under setting [2], 0 of 6.
As for `COC1=C(Br)C(=O)c2ncccc2C1=O`, the survivor count is, setting by setting: (dose: 10.0 mg/kg/injection, schedule: Q01DX001 (ip), vehicle: carboxymethylcellulose (CMC)) 4 of 4; (dose: 40.0 mg/kg/injection, schedule: Q01DX001 (ip), vehicle: carboxymethylcellulose (CMC)) 0 of 4; (dose: 50.0 mg/kg/injection, schedule: Q01DX001 (ip), vehicle: carboxymethylcellulose (CMC)) 1 of 4; (dose: 80.0 mg/kg/injection, schedule: Q01DX001 (ip), vehicle: carboxymethylcellulose (CMC)) 0 of 4; (dose: 100.0 mg/kg/injection, schedule: Q01DX001 (ip), vehicle: carboxymethylcellulose (CMC)) 0 of 4; (dose: 200.0 mg/kg/injection, schedule: Q01DX001 (ip), vehicle: carboxymethylcellulose (CMC)) 0 of 4. Besides, under “dose: 400.0 mg/kg/injection, schedule: Q01DX001 (ip), vehicle: carboxymethylcellulose (CMC)”, the survivor count is on record as 0 of 4.
For `COc1cc([N+](=O)[O-])ccc1C#N`, the survivor count (dose: 200.0 mg/kg/injection, schedule: Q04DX003 (ip), vehicle: Klucel (hydroxypropylcellulose) (HPC)) was 5 of 6.
On to `COc1ccc(SC2=C(N(C)C(C)=O)C(=O)c3ccccc3C2=O)cc1`, for which the survivor count is 0 of 6 (dose: 45.0 mg/kg/injection, schedule: Q01DX009 (ip), vehicle: Klucel (hydroxypropylcellulose) (HPC)); 3 of 6 (dose: 60.0 mg/kg/injection, schedule: Q01DX001 (ip), vehicle: Klucel (hydroxypropylcellulose) (HPC)); 0 of 6 (dose: 70.0 mg/kg/injection, schedule: Q01DX009 (ip), vehicle: Klucel (hydroxypropylcellulose) (HPC)); 3 of 6 (dose: 75.0 mg/kg/injection, schedule: Q01DX001 (ip), vehicle: carboxymethylcellulose (CMC)); 0 of 6 (dose: 105.0 mg/kg/injection, schedule: Q01DX009 (ip), vehicle: Klucel (hydroxypropylcellulose) (HPC)); 2 of 6 (dose: 150.0 mg/kg/injection, schedule: Q01DX001 (ip), vehicle: carboxymethylcellulose (CMC)). Also, under “dose: 300.0 mg/kg/injection, schedule: Q01DX001 (ip), vehicle: carboxymethylcellulose (CMC)”, the survivor count is 1 of 6.
On to `Ic1ncnc2nc[nH]c12`, for which the T/C is 130 % of control (dose: 132.0 mg/kg/injection, schedule: Q01DX009 (ip), vehicle: Klucel (hydroxypropylcellulose) (HPC)); 131 % of control under setting [1]; 128 % of control (dose: 250.0 mg/kg/injection, schedule: Q01DX Z (ip), vehicle: carboxymethylcellulose (CMC)); 143 % of control (dose: 300.0 mg/kg/injection, schedule: Q01DX009 (ip), vehicle: saline). The survivor count under setting [2] is reported as 0 of 6 and the survivor count (dose: 500.0 mg/kg/injection, schedule: Q01DX Z (ip), vehicle: carboxymethylcellulose (CMC)) is on record as 3 of 6.
In the case of `CC(=O)c1ccc2c3ccccc3n(CCCN3CCC(O)CC3)c2c1`, the survivor count under setting [3] is 0 of 3.
On to `CCN=C(N)c1ccc(N=C(N)c2cccc(C(N)=Nc3ccc(C(N)=NCC)cc3)c2)cc1`, for which, under “dose: 7.5 mg/kg/injection, schedule: Q01DX Z (ip), vehicle: saline”, the T/C was 132 % of control. Besides, the survivor count is on record as 1 of 6 (dose: 15.0 mg/kg/injection, schedule: Q01DX Z (ip), vehicle: saline); 0 of 6 (dose: 30.0 mg/kg/injection, schedule: Q01DX Z (ip), vehicle: saline); 0 of 6 (dose: 60.0 mg/kg/injection, schedule: Q01DX Z (ip), vehicle: saline); 0 of 6 (dose: 120.0 mg/kg/injection, schedule: Q01DX Z (ip), vehicle: saline).
`CCC[N+](C)(C)CCCOC(=O)C1C2CC3OC(=O)C1C3C2` (centres undefined): the survivor count (dose: 400.0 mg/kg/injection, schedule: Q04DX003 (ip), vehicle: saline) is reported as 0 of 3.
As for `S=C(S)NNc1ccccc1`, the survivor count under setting [4] is on record as 1 of 6.
Regarding `O=C(O)C12C3(Cl)C4(Cl)C5(OCCO5)C5(Cl)C3(Cl)C1(Cl)C5(Cl)C42Cl` (centres undefined), the survivor count (dose: 400.0 mg/kg/injection, schedule: Q01DX001 (ip), vehicle: saline) is reported as 0 of 4.
With `BrCC1(c2ccccc2)OCCO1`, the survivor count under setting [2] is 0 of 6.
